Binding data for 1 substance are collected here from publication PMC3776838, “Detection of Phospho-Sites Generated by Protein Kinase CK2 in CFTR: Mechanistic Aspects of Thr1471 Phosphorylation” (PLoS ONE, 2013).

Protein sequences, listed by entry. Tags and fused reporters are not part of them.
UniProt P67870: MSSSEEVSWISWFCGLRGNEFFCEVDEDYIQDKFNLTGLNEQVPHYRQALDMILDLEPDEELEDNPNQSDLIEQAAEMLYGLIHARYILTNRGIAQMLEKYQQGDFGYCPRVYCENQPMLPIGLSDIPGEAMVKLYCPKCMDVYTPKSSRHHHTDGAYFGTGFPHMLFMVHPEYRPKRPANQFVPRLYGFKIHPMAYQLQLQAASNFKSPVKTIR

Results are given in words; binding and its absence hold for the method and conditions named. Some binding calls cover weakened binding; strength is not graded here.

The assay concerns the target Human CK2 β-subunit (human) (UniProt P67870). Description: reconstitution and co-purification (Heparin-Sepharose, size-exclusion chromatography); pellets of E. coli expressing CK2α and CK2β independently were mixed and lysed at 4°C in Tris/HCl 25 mM, pH 8, NaCl 0.4 M, DTT 1 mM; Heparin-Sepharose gradient 0.4–1 M NaCl; SEC in Tris/HCl 25 mM, pH 8, NaCl 0.5 M, DTT 1 mM.

As for “Human CK2 β-subunit (from UniProt P67870 1-215)”, the binding result is “binds”.
